PubChem BioAssay AID1259308 | NCATS, 2017
Shown is one part, drawn at random, of about 59,000 reagents tested. In the full data, about 1,510 (2.6%) got an active call. 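Calls use total luciferase alone and ignore viability, so some active siRNAs may act by altering cell number.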 The numbers tell different reagents against one gene apart. Further read-outs or replicates are left out here.

- Test: 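Candidate targets for better recombinant protein yield in mammalian cells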 (primary screen)
- Cells: human HEK293 embryonic kidney cells stably expressing firefly luciferase (HEK-CMV-Luc2-Hygro)
- Reagent: single siRNA against human genes, 0.8 pmol siRNA per well
- Timing: 72 h
- Detection: 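Reporter luminescence and viable-cell signal on separate replicate plates, given as percent of non-targeting control and median/MAD z-scores, plus per-cell luciferase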
- Reading the numbers: total luciferase, z-score: higher = more reporter protein produced
- Hit rule: 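An siRNA counts as active if its total luciferase robust z-score exceeds 3; genes with two or more such siRNAs out of three were retested with fresh siRNAs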
- Meaning of the calls: active = raised luciferase; inactive = no rise

Against MKX (GeneID 283078) #1 the deposit lists total luciferase, z-score -0.863; inactive.
MKX (GeneID 283078) #2 gave total luciferase, z-score 1.29; inactive.
Depletion of MKX (GeneID 283078) #3 resulted in: total luciferase, z-score 0.0954; inactive.
RAB11FIP1 (GeneID 80223) #1 showed total luciferase, z-score 0.325; inactive.
RAB11FIP1 (GeneID 80223) #2 scored total luciferase, z-score -0.0351; inactive.
Knock-down of RAB11FIP1 (GeneID 80223) #3 resulted in: total luciferase, z-score -0.00331; inactive.
SREBF2 (GeneID 6721) #1 gave total luciferase, z-score 1; inactive.
For SREBF2 (GeneID 6721) #2 the deposit lists total luciferase, z-score -1.23; inactive.
Against SREBF2 (GeneID 6721) #3, the values are total luciferase, z-score 0.407; inactive.
For PSMG2 (GeneID 56984) #1 the deposit lists total luciferase, z-score 0.0437; inactive.
For PSMG2 (GeneID 56984) #2 the deposit lists total luciferase, z-score -0.264; inactive.
With knock-down of PSMG2 (GeneID 56984) #3, the record shows total luciferase, z-score 0.743; inactive.

2 of these entries, set out differently.
PSMG2 (GeneID 56984) #2
- total luciferase, z-score: -0.264
- Outcome: inactive

PSMG2 (GeneID 56984) #3
- total luciferase, z-score: 0.743
- Outcome: inactive
